Measurements from the supplement of paper PMC10849652.
Some of the results follow.

Sequences of proteins named here, by UniProt entry; tags and fusion partners are left off. A change or cut given only in a name is not applied to a line headed by its entry.
UniProt Q13478: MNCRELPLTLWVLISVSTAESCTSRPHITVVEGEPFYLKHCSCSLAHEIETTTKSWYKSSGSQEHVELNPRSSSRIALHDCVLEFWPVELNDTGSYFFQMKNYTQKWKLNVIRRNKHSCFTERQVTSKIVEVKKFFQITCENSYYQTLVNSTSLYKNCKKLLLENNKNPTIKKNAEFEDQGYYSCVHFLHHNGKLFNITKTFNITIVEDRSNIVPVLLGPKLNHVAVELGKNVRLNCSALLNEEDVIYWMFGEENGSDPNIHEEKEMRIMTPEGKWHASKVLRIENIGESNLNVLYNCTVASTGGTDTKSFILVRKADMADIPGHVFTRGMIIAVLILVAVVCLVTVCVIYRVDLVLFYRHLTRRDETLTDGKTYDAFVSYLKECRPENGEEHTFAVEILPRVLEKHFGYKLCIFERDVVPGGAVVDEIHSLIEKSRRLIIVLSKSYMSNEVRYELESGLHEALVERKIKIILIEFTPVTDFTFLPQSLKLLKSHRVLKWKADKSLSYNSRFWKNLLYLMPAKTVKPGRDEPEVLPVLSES
UniProt Q6UWB1, whole entry, looked up: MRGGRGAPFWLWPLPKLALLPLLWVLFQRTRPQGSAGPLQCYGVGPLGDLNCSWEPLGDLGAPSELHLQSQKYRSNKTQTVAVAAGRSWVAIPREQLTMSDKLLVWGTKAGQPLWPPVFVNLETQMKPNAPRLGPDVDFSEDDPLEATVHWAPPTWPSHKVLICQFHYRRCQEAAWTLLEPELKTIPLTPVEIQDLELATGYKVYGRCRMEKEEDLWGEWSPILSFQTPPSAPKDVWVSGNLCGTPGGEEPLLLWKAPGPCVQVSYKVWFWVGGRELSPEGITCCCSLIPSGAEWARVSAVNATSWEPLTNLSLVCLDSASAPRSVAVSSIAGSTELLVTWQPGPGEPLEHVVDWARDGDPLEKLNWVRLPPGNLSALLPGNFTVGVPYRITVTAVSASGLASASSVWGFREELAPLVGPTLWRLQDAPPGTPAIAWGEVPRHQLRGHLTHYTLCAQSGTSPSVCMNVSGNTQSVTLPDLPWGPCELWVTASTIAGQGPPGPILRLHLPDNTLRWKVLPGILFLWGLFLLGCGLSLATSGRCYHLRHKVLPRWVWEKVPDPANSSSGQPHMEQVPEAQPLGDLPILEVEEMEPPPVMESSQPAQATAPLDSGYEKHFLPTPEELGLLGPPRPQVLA
UniProt Q96LU5: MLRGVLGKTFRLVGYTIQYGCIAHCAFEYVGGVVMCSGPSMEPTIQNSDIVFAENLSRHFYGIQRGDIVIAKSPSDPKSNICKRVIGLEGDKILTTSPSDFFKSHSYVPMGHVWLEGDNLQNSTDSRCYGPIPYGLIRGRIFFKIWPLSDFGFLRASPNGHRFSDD
UniProt Q9Y287, whole entry, looked up: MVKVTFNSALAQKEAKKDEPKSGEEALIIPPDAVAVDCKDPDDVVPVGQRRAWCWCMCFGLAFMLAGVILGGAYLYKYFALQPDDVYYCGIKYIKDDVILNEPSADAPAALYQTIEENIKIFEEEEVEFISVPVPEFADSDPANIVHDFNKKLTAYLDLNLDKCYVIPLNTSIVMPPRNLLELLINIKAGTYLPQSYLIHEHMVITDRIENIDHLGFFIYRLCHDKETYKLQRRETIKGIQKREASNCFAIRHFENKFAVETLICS
UniProt P58166: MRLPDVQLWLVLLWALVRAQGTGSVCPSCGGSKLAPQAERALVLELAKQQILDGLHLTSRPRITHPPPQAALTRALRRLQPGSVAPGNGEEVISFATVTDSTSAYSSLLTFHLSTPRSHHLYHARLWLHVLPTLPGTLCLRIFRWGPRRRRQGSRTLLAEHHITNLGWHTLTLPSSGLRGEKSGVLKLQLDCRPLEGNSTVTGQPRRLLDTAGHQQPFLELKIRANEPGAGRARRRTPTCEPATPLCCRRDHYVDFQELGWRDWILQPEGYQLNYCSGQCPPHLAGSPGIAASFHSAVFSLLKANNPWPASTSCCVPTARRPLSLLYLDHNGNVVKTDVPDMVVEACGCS
UniProt Q13422: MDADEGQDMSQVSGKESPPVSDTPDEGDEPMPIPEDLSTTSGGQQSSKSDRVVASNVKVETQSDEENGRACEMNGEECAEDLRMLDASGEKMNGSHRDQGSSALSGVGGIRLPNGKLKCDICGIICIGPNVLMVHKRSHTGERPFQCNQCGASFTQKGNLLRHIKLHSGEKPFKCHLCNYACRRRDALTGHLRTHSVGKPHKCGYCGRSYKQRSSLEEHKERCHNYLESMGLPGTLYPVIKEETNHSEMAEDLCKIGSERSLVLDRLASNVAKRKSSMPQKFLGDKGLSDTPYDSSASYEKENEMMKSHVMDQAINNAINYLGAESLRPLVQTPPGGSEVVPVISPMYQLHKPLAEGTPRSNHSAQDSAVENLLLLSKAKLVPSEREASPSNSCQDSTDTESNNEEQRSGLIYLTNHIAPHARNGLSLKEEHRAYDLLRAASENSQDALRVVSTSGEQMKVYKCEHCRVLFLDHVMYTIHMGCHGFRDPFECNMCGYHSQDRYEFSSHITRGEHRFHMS
UniProt Q9H2S9: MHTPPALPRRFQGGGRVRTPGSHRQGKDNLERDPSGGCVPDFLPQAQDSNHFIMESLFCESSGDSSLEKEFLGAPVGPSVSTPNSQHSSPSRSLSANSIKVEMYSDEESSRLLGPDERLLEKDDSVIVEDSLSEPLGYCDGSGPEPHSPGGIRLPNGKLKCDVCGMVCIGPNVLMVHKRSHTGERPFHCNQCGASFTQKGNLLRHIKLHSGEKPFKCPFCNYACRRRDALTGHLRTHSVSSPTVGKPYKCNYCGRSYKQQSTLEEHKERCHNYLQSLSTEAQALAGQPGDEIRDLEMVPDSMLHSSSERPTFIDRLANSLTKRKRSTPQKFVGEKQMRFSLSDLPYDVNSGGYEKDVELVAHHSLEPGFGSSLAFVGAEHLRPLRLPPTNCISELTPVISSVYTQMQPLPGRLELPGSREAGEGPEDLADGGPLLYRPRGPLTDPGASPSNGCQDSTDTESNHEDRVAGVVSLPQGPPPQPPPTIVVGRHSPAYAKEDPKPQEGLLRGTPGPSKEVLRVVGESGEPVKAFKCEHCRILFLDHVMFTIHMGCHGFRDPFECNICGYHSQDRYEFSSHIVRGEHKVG
UniProt Q9UK53: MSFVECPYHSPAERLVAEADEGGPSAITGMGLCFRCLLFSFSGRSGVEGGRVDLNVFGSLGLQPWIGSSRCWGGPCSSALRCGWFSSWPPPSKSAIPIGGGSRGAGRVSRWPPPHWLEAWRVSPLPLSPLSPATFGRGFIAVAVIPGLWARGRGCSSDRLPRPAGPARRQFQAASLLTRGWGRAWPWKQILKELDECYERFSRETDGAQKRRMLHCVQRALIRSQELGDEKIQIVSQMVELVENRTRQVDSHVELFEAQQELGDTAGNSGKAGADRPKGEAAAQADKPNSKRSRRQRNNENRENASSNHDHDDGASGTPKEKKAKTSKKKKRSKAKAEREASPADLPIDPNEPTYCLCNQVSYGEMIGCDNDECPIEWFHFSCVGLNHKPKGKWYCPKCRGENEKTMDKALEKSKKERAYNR
UniProt P51617, whole entry, looked up: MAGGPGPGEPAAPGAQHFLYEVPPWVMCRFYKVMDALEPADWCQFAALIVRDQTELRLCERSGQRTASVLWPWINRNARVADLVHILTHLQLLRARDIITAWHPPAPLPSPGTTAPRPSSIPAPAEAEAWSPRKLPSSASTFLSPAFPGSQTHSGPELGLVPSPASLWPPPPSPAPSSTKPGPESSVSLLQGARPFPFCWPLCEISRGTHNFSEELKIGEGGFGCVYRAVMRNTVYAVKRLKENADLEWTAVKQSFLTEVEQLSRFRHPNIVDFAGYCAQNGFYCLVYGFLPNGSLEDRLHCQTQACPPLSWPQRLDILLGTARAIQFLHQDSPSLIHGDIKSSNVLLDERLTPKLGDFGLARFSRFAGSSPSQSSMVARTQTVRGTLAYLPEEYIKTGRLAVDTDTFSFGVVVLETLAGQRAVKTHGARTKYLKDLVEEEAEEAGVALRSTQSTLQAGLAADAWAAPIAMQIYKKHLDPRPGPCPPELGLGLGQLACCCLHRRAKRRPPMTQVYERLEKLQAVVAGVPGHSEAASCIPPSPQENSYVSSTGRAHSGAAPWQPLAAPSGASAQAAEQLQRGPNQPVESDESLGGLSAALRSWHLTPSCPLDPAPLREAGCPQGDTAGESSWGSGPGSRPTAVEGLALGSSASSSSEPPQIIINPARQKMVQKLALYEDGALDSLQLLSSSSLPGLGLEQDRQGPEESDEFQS
UniProt Q08334: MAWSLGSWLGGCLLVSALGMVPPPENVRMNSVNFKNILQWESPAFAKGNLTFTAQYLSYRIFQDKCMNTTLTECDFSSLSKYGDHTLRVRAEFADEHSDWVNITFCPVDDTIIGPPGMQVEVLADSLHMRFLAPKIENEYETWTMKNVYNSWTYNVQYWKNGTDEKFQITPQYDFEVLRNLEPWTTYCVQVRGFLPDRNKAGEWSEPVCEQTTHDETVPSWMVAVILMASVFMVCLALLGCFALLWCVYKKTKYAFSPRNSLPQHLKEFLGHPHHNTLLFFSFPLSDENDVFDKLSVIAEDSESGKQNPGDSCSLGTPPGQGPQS
UniProt Q969P0: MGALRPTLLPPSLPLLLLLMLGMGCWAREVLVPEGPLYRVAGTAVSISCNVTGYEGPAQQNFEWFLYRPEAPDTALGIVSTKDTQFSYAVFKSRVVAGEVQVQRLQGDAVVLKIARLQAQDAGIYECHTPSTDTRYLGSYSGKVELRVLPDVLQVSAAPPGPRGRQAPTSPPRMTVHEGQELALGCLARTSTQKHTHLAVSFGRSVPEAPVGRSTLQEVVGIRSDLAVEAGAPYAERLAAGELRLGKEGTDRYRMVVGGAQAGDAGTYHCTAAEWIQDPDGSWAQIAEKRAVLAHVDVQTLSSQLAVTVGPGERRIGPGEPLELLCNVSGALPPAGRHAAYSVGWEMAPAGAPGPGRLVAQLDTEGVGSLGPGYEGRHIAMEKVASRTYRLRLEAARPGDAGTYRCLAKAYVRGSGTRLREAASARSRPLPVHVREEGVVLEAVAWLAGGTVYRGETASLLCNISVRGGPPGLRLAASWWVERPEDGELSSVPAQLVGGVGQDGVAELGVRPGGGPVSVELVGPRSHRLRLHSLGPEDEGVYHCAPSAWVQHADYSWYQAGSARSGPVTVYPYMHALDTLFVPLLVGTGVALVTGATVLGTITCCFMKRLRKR
UniProt Q75QN2, whole entry, looked up: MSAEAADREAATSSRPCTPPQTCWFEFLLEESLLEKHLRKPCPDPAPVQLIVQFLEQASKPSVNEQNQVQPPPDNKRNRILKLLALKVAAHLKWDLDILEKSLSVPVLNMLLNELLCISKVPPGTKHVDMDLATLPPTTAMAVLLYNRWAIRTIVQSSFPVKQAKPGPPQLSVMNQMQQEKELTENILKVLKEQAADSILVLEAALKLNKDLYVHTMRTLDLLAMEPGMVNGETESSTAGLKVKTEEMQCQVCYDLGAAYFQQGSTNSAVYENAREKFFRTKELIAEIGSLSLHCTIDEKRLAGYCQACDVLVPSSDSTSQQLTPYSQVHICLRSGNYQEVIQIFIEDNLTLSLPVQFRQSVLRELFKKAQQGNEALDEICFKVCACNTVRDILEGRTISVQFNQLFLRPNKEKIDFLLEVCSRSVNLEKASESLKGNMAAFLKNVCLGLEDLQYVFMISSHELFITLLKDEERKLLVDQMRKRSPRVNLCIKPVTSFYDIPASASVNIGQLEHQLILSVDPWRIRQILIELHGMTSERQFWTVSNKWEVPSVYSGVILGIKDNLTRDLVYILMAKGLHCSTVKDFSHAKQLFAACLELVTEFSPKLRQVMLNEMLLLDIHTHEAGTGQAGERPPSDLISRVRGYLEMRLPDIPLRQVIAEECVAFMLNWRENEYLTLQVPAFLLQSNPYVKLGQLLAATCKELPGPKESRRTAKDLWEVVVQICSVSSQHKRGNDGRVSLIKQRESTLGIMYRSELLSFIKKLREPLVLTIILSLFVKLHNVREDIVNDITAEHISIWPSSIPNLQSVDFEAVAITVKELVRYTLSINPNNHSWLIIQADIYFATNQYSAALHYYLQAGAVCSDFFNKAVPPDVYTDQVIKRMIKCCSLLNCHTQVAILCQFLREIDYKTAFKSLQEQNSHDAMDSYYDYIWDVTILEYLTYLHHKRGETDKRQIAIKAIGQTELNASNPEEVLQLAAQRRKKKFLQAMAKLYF
UniProt Q8NBZ0, whole entry, looked up: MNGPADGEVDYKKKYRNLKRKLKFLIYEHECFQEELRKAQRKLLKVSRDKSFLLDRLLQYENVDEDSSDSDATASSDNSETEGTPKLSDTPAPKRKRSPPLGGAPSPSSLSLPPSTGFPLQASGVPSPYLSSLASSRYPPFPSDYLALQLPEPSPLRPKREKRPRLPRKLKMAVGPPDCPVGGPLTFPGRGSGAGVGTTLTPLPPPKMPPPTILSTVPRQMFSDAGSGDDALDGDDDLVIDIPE

Legend:
Assay in all cases: log2 fold change, soluble protein after heating vs DMSO (PISA); higher = thermal stabilisation; K562 cells, 10 uM, 30 min; active = over 0.2 and 3.5 SD of the protein, either way, in both replicates (recomputed)
[1] = compound: CS(=O)(=O)c1ccc(-c2cnc(N)c(C(=O)Nc3ccccc3)n2)cc1
Summary of the method: (§1)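 Values are thermal stability changes relative to control samples and are taken from duplicates. They are stated as log2 fold changes. Before quantification by TMTpro 16plex LC-MS/MS with equalised channel sums, K562 cells at 2×10^6 cells/mL were treated with 10 μM compound for 30 min, heated in aliquots for 3 min across 48°C-58°C, pooled, extracted in PBS with 0.5% NP-40 at 4°C, and centrifuged at 21,000xg for 90 min to give the soluble supernatant.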

[2] = compound: C[C@@H](Oc1cc(-c2cnn(C3CCNCC3)c2)cnc1N)c1c(Cl)ccc(F)c1Cl [crizotinib]
Summary of the method: as §1

[3] = compound: C[C@H](Nc1ncnc2nc[nH]c12)c1cc2cccc(Cl)c2c(=O)n1-c1ccccc1 [duvelisib]
Summary of the method: as §1

[4] = compound: Cc1cc(Nc2cc(CN3CCOCC3)c3nc(C)c(Cc4ccc(Cl)cc4F)n3n2)n[nH]1 [gandotinib]
Summary of the method: as §1

[5] = compound: Cc1cc(SCc2sc(-c3ccc(C(F)(F)F)cc3)nc2C)ccc1OCC(=O)O
Summary of the method: as §1

[6] = compound: Cc1ccc(-n2nc(C(C)(C)C)cc2NC(=O)Nc2ccc(OCCN3CCOCC3)c3ccccc23)cc1 [doramapimod]
Summary of the method: as §1

[7] = compound: Cc1ccc(NC(=O)c2ccc(CN3CC[C@H](N(C)C)C3)c(C(F)(F)F)c2)cc1Nc1nccc(-c2cncnc2)n1 [bafetinib]
Summary of the method: as §1

[8] = compound: Cc1cccc(CC(=O)N2CCc3c2ccc(-c2cn(C)c4ncnc(N)c24)c3F)n1
Summary of the method: as §1

[9] = compound: Cc1cn(-c2cc(NC(=O)c3ccc(C)c(Nc4nccc(-c5cccnc5)n4)c3)cc(C(F)(F)F)c2)cn1 [nilotinib]
Summary of the method: as §1

[10] = compound: Cc1nc(Nc2n[nH]c3c2CN(C(=O)N[C@H](CN(C)C)c2ccccc2)C3(C)C)c2sccc2n1
Summary of the method: as §1

[11] = compound: Cc1nc(Nc2ncc(C(=O)Nc3c(C)cccc3Cl)s2)cc(N2CCN(CCO)CC2)n1 [dasatinib]
Summary of the method: as §1

[12] = compound: Cc1ncc(-c2ccnc(Nc3ccc(S(C)(=O)=O)cc3)n2)n1C(C)C
Summary of the method: as §1

[13] = compound: Cn1cncc1[C@@](N)(c1ccc(Cl)cc1)c1ccc2c(c1)c(-c1cccc(Cl)c1)cc(=O)n2C [tipifarnib]
Summary of the method: as §1

[14] = compound: FC(F)(F)c1ccc(/C=C/c2nc(COc3ccc(CCCCn4ccnn4)cc3)co2)cc1 [mubritinib]
Summary of the method: as §1

[15] = compound: C[C@@H]1COCCN1C2=NC(=NC(=C2)C3(CC3)S(=O)(=O)C)C4=C5C=CNC5=CC=C4
Summary of the method: as §1

[16] = compound: C[C@H](C1=CC=C(C=C1)C(=O)NC2=C3C=CNC3=NC=C2)N
Summary of the method: as §1

[17] = compound: Cc1ccc(C(=O)N(CCCN)[C@@H](c2nc3cc(Cl)ccc3c(=O)n2Cc2ccccc2)C(C)C)cc1 [ispinesib]
Summary of the method: as §1

[18] = compound: Cn1cc(-c2ccc3c(c2)CCN3C(=O)Cc2cccc(C(F)(F)F)c2)c2c(N)ncnc21
Summary of the method: as §1

[19] = compound: Cn1cc(-c2ccc3nnc(C(F)(F)c4ccc5ncccc5c4)n3n2)cn1
Summary of the method: as §1

[20] = compound: Cc1cc(Nc2cc(N3CCN(C)CC3)nc(Sc3ccc(NC(=O)C4CC4)cc3)n2)n[nH]1 [tozasertib]
Summary of the method: as §1

Measured: log2 fold change

IL18R1 (UniProt Q13478)
inactive: [1] 0.088 | [2] 0.036 | [3] 0.196 | [4] -0.048 | [5] -0.012 | [6] -0.166 | [7] -0.182 | [8] 0.053 | [9] -0.136 | [10] 0.057 | [11] 0.089 | [12] 0.071 | [13] -0.04 | [14] 0.166

IL27RA (UniProt Q6UWB1)
active: [15] 0.539
inactive: [1] -0.031 | [2] 0.029 | [16] -0.121 | [5] -0.109 | [6] 0.211 | [17] 0.043 | [7] -0.098 | [9] 0.086 | [10] -0.06 | [11] 0.055 | [12] -0.006 | [18] -0.039 | [19] -0.109 | [13] 0.159 | [14] 0.005

IMMP1L (UniProt Q96LU5)
inactive: [1] 0.024 | [2] 0.121 | [15] 0.045 | [16] -0.05 | [5] 0.012 | [6] 0.015 | [17] -0.063 | [7] -0.024 | [9] -0.044 | [10] 0.059 | [11] 0.098 | [12] 0.03 | [18] 0.068 | [19] 0.071 | [13] 0.02 | [14] 0.048

ITM2B (UniProt Q9Y287)
inactive: [1] 0.065 | [2] -0.193 | [15] -0.032 | [16] 0.038 | [5] -0.032 | [6] 0.043 | [17] 0.131 | [7] -0.112 | [9] 0.006 | [10] -0.062 | [11] 0.006 | [12] 0.033 | [18] 0.035 | [19] -0.04 | [13] 0.006 | [14] 0.059

INHBE (UniProt P58166)
inactive: [1] 0.001 | [7] 0.056 | [14] -0.108

IGLL5 (UniProt B9A064)
inactive: [1] -0.213 | [2] -0.161 | [4] -0.223 | [20] -0.086 | [6] -0.206 | [7] 0.307 | [8] -0.026 | [9] -0.043 | [10] -0.201 | [12] -0.114 | [13] -0.014 | [14] -0.412

IKZF1 isoform 2 (UniProt Q13422)
inactive: [1] 0.081 | [16] 0.059 | [17] -0.034 | [7] -0.217 | [9] 0.101 | [10] -0.018 | [12] 0.043 | [18] -0.026 | [19] 0.015 | [14] -0.024

Taken from the results shown (2 entries):
IGLL5 (UniProt B9A064)
inactive: [1] -0.213 | [2] -0.161 | [4] -0.223 | [20] -0.086 | [6] -0.206 | [7] 0.307 | [8] -0.026 | [9] -0.043 | [10] -0.201 | [12] -0.114 | [13] -0.014 | [14] -0.412

IKZF1 isoform 2 (UniProt Q13422)
inactive: [1] 0.081 | [16] 0.059 | [17] -0.034 | [7] -0.217 | [9] 0.101 | [10] -0.018 | [12] 0.043 | [18] -0.026 | [19] 0.015 | [14] -0.024

Further records.

IKZF4 (UniProt Q9H2S9)
inactive: [1] -0.119 | [15] -0.107 | [16] -0.086 | [3] 0.095 | [4] -0.027 | [5] 0.156 | [17] 0.104 | [7] -0.163 | [8] -0.01 | [9] 0.233 | [10] 0.069 | [11] 0.016 | [12] 0.152 | [18] 0.097 | [19] 0.16 | [13] -0.002

ING1 (UniProt Q9UK53)
inactive: [1] 0.028 | [2] 0.131 | [16] -0.146 | [20] 0.05 | [6] 0.117 | [7] 0.024 | [18] -0.047 | [14] 0.027

IRAK1 (UniProt P51617)
inactive: [1] 0.248 | [2] -0.002 | [15] -0.025 | [4] 0.006 | [6] 0.205 | [17] -0.216 | [7] 0.166 | [8] 0.174 | [9] -0.049 | [10] -0.178 | [12] 0.097 | [19] -0.164 | [14] 0.001

IL10RB (UniProt Q08334)
inactive: [1] 0.004 | [2] 0.009 | [15] -0.031 | [4] -0.238 | [5] 0.089 | [6] -0.007 | [7] -0.079 | [8] -0.031 | [9] 0.026 | [10] 0.151 | [11] 0.068 | [12] 0.105 | [13] 0.126

IGSF8 (UniProt Q969P0)
inactive: [2] 0.159 | [15] 0.208 | [16] 0.043 | [3] -0.005 | [4] 0.132 | [20] -0.101 | [5] 0.187 | [6] -0.01 | [17] -0.09 | [7] -0.006 | [8] -0.073 | [11] -0.08 | [18] 0.024 | [19] 0.116 | [13] 0.114 | [14] 0.114

INTS8 (UniProt Q75QN2)
inactive: [1] 0.019 | [2] -0.109 | [16] 0.097 | [3] 0.033 | [4] 0.091 | [20] 0.01 | [5] 0.092 | [6] -0.091 | [17] 0.037 | [7] 0.274 | [8] 0.114 | [9] -0.075 | [10] -0.109 | [11] -0.155 | [12] 0.048 | [18] -0.022 | [19] 0.038 | [13] -0.078

ITPR3 (UniProt Q14573)
inactive: [2] -0.558 | [16] 0.251 | [6] 0.127 | [18] -0.35

INO80E (UniProt Q8NBZ0)
inactive: [2] -0.041 | [4] -0.059 | [20] -0.086 | [6] 0.056 | [17] 0.023 | [7] 0.119 | [8] -0.046 | [19] 0.018 | [13] 0.071 | [14] -0.083
